Laboratory results as given in the supplement of paper PMC7024190.
The list shows a part of the results. This data set is noisy: repeats of one test often differ as much as different tests do.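 Human embryonic kidney cells were transiently transfected with a plasmid bearing a Renilla luciferase gene under the HSV-TK promoter. This first-round screen tests roughly ten thousand compounds for ones that increase reporter output.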

Tested on: HEK 293FT
Test: log relative Renilla luciferase luminescence (reporter expression vs reference, reference not stated) (log (base not stated)); higher = higher recombinant reporter expression
Details: 10 µM; time after transfection 48 h
Description: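 HEK 293FT cells transiently transfected with pRL-TK (Renilla luciferase) were treated with compounds at 10 uM and luminescence was read about 42 h later. Values are log relative Renilla luminescence (log base and reference not stated). Single-pass screen; 2080 natural products library.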

Structure (SMILES)	log
C[C@@H]1CC[C@@]2(C)C(C(=O)O)=CCC[C@@H]2[C@]1(C)CCc1ccoc1 [Hardwickiic acid]	0.132
C=C(CCC(O)C(C)(C)O)[C@H]1CC[C@]2(C)[C@@H]1CC[C@@H]1[C@@]3(C)CCC(=O)C(C)(C)[C@@H]3CC[C@]12C (some centres undefined) [24,25-Dihydroxydammar-20-en-3-one]	0.00908
CCc1ncc(OC)c2c1[nH]c1ccccc12 [Crenatine]	-0.129
Cc1coc2c1C(=O)C(=O)c1c-2ccc2c1CCCC2(C)C [Tanshinone II]	0.121
C=C1[C@@H]2CC[C@H]3[C@@]45CO[C@](O)([C@@H](OC(C)=O)[C@@H]4C(C)(C)C=CC5=O)[C@]3(C2)[C@@H]1OC(C)=O [Odonicin]	-0.172
COC[C@@H](Cc1ccc(OC)c(OC)c1)[C@@H](COC)Cc1cc(OC)c2c(c1)OCO2 [Niranthin]	0.0164
COn1cc(CC[C@@H](C)CO)c2ccccc21 [Paniculidine B]	-0.397
O=C1c2cccc(O)c2C(=O)c2c(O)cccc21 [Dantron]	-0.273
CC(=O)Oc1cc(O)c2c(c1)O[C@H](c1ccccc1)[C@@H](OC(C)=O)C2=O [3,7-O-Diacetylpinobanksin]	0.0222
CC1(C)CC[C@]2(C)CC[C@]3(C)C(=C2C1)CC[C@@H]1[C@@]2(C)CC[C@H](O)C(C)(C)[C@@H]2CC[C@]13C [13(18)-Oleanen-3-ol]	0.012
C=C(C)[C@@H]1CC[C@@](C)([C@H]2CC[C@]3(C)[C@@H]2CC[C@@H]2[C@@](C)(CCC(=O)O)[C@H](C(=C)C)CC[C@]23C)O1 [Richenoic acid]	-0.368
COc1cc([C@H]2c3cc(O)c(OC)cc3C=C(C=O)[C@@H]2CO)ccc1O [7,8,9,9-Tetradehydroisolariciresinol]	0.0528
C=C(C)[C@@H]1CC[C@]2(CO)CC[C@]3(C)[C@H](CC[C@@H]4[C@@]5(C)CC[C@H](OC(=O)CCCCCCCCCCCCCCC)C(C)(C)[C@@H]5CC[C@]43C)[C@@H]12 [Betulin palmitate]	-0.108
CC1=CC(=O)CC(C)(C)[C@@]1(O)/C=C/[C@@H](C)O[C@@H]1O[C@H](CO)[C@@H](O)[C@H](O)[C@H]1O [Roseoside]	-0.382
COc1cc(OC)c2ccc(=O)oc2c1OC/C=C(\C)CCC=C(C)C [8-Geranyloxy-5,7-dimethoxycoumarin]	-0.0232
CCCCCCCCCCCCCCCC(=O)O[C@H]1CC[C@]2(C)[C@H]3CC=C4[C@@H]5CC(C)(C)CC[C@]5(CO)CC[C@@]4(C)[C@]3(C)CC[C@H]2C1(C)C [Erythrodiol 3-palmitate]	-0.0153
O=C1c2c(O)cc(O)cc2O[C@H](c2ccc(O)cc2O)[C@H]1O [Dihydromorin]	-0.253
C=C(C)[C@@H]1CC[C@]2(C)[C@H](CC[C@@H]3[C@@H]([C@]4(C)CC[C@H](C(C)(C)O)O4)CC[C@]32C)[C@@]1(C)CCC(=O)O [Shoreic acid]	-0.112
O=C(O)C1=C[C@@H](O)[C@@H](O)[C@H](O)C1 [Shikimic acid]	0.0724
COc1cc2ccc(=O)oc2cc1O[C@@H]1O[C@H](CO)[C@@H](O)[C@H](O)[C@H]1O [Scopolin]	0.0607
COC(=O)N1c2ccccc2[C@@]23[C@@H]4CN5CCC[C@@](CC[C@]12C(=O)OC)(CC4=O)[C@H]53 [Methyl chanofruticosinate]	-0.0216
O=C1OCC=C1[C@H]1CCc2ccc3c(c2C1)[C@H](c1ccoc1)OC3=O [Tilifodiolide]	-0.127
C=C(C)[C@@H]1CC[C@]2(C)CC[C@]3(C)[C@H](CC[C@@H]4[C@@]5(C)CC[C@@H](O)[C@@](C)(CO)[C@@H]5CC[C@]43C)[C@@H]12 [20(29)-Lupene-3,23-diol]	0.232
OCC1CCC(O)C1 (centres undefined) [3-(Hydroxymethyl)cyclopentanol]	0.113
COc1c2ccoc2cc2oc(C)cc(=O)c12 [Visnagin]	-0.0479
C[C@H]1[C@H](C)CC[C@]2(C(=O)O)CC[C@]3(C)C(=CC[C@@H]4[C@@]5(C)C[C@@H](O)[C@@H](O)[C@](C)(CO)[C@@H]5CC[C@]43C)[C@H]12 [2,3,24-Trihydroxy-12-ursen-28-oic acid]	-0.594
COc1ccc(C[C@H]2CO[C@H](c3ccc(OC)c(OC)c3)[C@H]2CO)cc1OC [Lariciresinol dimethyl ether]	0.0888
CC(C)C1=C(O)C(=O)C2=C(C1=O)[C@H](O)C[C@H]1C(C)(C)CCC[C@]21C [Horminone]	0.212
CC1(C)[C@H](O)CC[C@]2(C)[C@@H]1CCC1=C[C@@](C)([C@@H](O)CO)CC[C@]12O [9-Hydroxydarutigenol]	-0.157

A portion from the list above:
Structure (SMILES)	log
C=C(C)[C@@H]1CC[C@@](C)([C@H]2CC[C@]3(C)[C@@H]2CC[C@@H]2[C@@](C)(CCC(=O)O)[C@H](C(=C)C)CC[C@]23C)O1 [Richenoic acid]	-0.368
COc1cc([C@H]2c3cc(O)c(OC)cc3C=C(C=O)[C@@H]2CO)ccc1O [7,8,9,9-Tetradehydroisolariciresinol]	0.0528
C=C(C)[C@@H]1CC[C@]2(CO)CC[C@]3(C)[C@H](CC[C@@H]4[C@@]5(C)CC[C@H](OC(=O)CCCCCCCCCCCCCCC)C(C)(C)[C@@H]5CC[C@]43C)[C@@H]12 [Betulin palmitate]	-0.108
CC1=CC(=O)CC(C)(C)[C@@]1(O)/C=C/[C@@H](C)O[C@@H]1O[C@H](CO)[C@@H](O)[C@H](O)[C@H]1O [Roseoside]	-0.382
COc1cc(OC)c2ccc(=O)oc2c1OC/C=C(\C)CCC=C(C)C [8-Geranyloxy-5,7-dimethoxycoumarin]	-0.0232
CCCCCCCCCCCCCCCC(=O)O[C@H]1CC[C@]2(C)[C@H]3CC=C4[C@@H]5CC(C)(C)CC[C@]5(CO)CC[C@@]4(C)[C@]3(C)CC[C@H]2C1(C)C [Erythrodiol 3-palmitate]	-0.0153
O=C1c2c(O)cc(O)cc2O[C@H](c2ccc(O)cc2O)[C@H]1O [Dihydromorin]	-0.253
